Results on two sequences are retold here after PMC6297230, “Structural basis of meiotic telomere attachment to the nuclear envelope by MAJIN-TERB2-TERB1” (Nature Communications, 2018).

Data set [1] has as its system MAJIN Core + TERB2 full length + TERB1 T2B. The data set is described as follows: EMSA. To be noted: plus TRF1 TRFH, not inhibited (inhibition needs TRF1-binding region of TERB1); EMSA: 20 mM Tris pH 8.0, 250 mM KCl, 1 h at 4 °C, 3% glycerol, 0.5% agarose in 0.5x TBE; 25 nM FAM-DNA for Kd (protein as oligomer), 0.3 uM DNA for display; recombinant protein. Background: A gel shift assay detects complexes by their altered migration in electrophoresis.

Data set [2] deals with MAJIN Core + TERB2 full length + TERB1 TRFB. The data set is described as follows: EMSA. To be noted: plus TRF1 TRFH, binding inhibited; EMSA: 20 mM Tris pH 8.0, 250 mM KCl, 1 h at 4 °C, 3% glycerol, 0.5% agarose in 0.5x TBE; 25 nM FAM-DNA for Kd (protein as oligomer), 0.3 uM DNA for display; recombinant protein.
The subject of data set [3] is MAJIN Core+BP1 + TERB2 full length + TERB1 TRFB. The data set is described as follows: EMSA. The following applies: plus TRF1 TRFH, inhibition partly compensated by BP1; EMSA: 20 mM Tris pH 8.0, 250 mM KCl, 1 h at 4 °C, 3% glycerol, 0.5% agarose in 0.5x TBE; 25 nM FAM-DNA for Kd (protein as oligomer), 0.3 uM DNA for display; recombinant protein.
The subject of data set [4] is TRF1 full length + MAJIN Core + TERB2 full length + TERB1 TRFB. The data set is described as follows: EMSA supershift. The following applies: complex recruited to DNA by full-length TRF1; EMSA: 20 mM Tris pH 8.0, 250 mM KCl, 1 h at 4 °C, 3% glycerol, 0.5% agarose in 0.5x TBE; 25 nM FAM-DNA for Kd (protein as oligomer), 0.3 uM DNA for display; recombinant protein.
The subject of data set [5] is MAJIN Core + TERB2 C-Tr. The data set is described as follows: EMSA. To be noted: TERB2 214-220 stated essential for DNA-binding; EMSA: 20 mM Tris pH 8.0, 250 mM KCl, 1 h at 4 °C, 3% glycerol, 0.5% agarose in 0.5x TBE; 25 nM FAM-DNA for Kd (protein as oligomer), 0.3 uM DNA for display; recombinant protein; protein details: tags removed (TEV),tags removed (TEV); label: 5' ….

The subject of data set [6] is MAJIN Core F73E Y75E + TERB2 C. Description: EMSA. The following applies: diminished vs WT; EMSA: 20 mM Tris pH 8.0, 250 mM KCl, 1 h at 4 °C, 3% glycerol, 0.5% agarose in 0.5x TBE; 25 nM FAM-DNA for Kd (protein as oligomer), 0.3 uM DNA for display; recombinant protein; protein details: tags removed (TEV),tags removed (TEV); label: 5' ….
Data set [7] relates to MAJIN Core basic surface mutant + TERB2 C. The data set is described as follows: EMSA. The following applies: complete inhibition of DNA-binding; EMSA: 20 mM Tris pH 8.0, 250 mM KCl, 1 h at 4 °C, 3% glycerol, 0.5% agarose in 0.5x TBE; 25 nM FAM-DNA for Kd (protein as oligomer), 0.3 uM DNA for display; recombinant protein; protein details: tags removed (TEV),tags removed (TEV); label: 5' ….

The exact form of at least one protein or probe is not confirmed. For some of these results: Negatives hold for the conditions tested. For some of these results: The comparison behind a weaker result is the experiment's own reference, which may not be listed here. For some of these results: At least one verdict was read from the data and is not stated in words by the source.

On to “GCGAACACCCTGCATCGTCCGACCGGCTCTACAGGTTCCGGCCTGTATTTCTCTTCC (double strand) [Random dsDNA (57 bp)]”, for which the binding result is reported as “binds” in data set [1], “binds more weakly” in data set [2], “binds” in data set [3] and “binds” in data set [4].
Consider “TTCCAGGGTTCCATGGAGATAAAGGTCAATAAATTAGAGTTAGAACTAGAAAGTGCCAAACAGAAATTTGGAGAAATCACAGACACCTATCAGAAAGAAATTGAGGACAAAAAGATATCAGAATAATAACCATGGATATCGAATT (double strand) [FAM random dsDNA (145 bp)]”, for which the binding result in data set [5] is “no binding”; in data set [6], “binds more weakly”; in data set [7], “no binding”.
